Data: publication PMC6797808, “Fucosylated inhibitors of recently identified bangle lectin from Photorhabdus asymbiotica” (Scientific Reports, 2019)
Results are given in words; binding and its absence hold for the method and conditions named. Some results given as binding are weak or reduced against the parent protein; the word gives no strength.

The chains behind the UniProt entries cited, without tags or fusion partners.
UniProt C7BLE4: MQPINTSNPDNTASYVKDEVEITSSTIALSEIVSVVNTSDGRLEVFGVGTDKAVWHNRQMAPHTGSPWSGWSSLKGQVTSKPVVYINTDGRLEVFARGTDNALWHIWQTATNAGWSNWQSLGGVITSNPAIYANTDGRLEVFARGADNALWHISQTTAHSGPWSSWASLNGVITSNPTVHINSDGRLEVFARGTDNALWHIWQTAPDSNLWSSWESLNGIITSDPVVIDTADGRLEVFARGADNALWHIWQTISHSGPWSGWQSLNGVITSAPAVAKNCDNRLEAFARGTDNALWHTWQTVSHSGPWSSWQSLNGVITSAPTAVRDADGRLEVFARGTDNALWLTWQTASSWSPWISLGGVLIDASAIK

Target: bangle lectin PHL from Photorhabdus asymbiotica (Photorhabdus asymbiotica) (UniProt C7BLE4)
Assay: crystal structure; PHL crystals (3.7 M NaCl, 100 mM Hepes, pH 7.5) soaked in 10 mM fucoside 2, 3 or 4 for 1 hour; two monomer units (A, B) in each structure; both purified

bangle lectin PHL from Photorhabdus asymbiotica (from UniProt C7BLE4 1-369)
binding: binds
